Measured values as given in PubChem BioAssay AID1347076 (National Center for Advancing Translational Sciences (NCATS), 2019).
The whole screen tested about 400,000 compounds, of which about 13,000 (3.2%) were called active. The shares of active, inactive and inconclusive entries below differ from those in the screen. The call rests on the fitted dose curve; in most records, active means well fitted cell-killing curve with a large enough effect; inconclusive means small, poorly fitted or top-dose-only effect, or effect the other way; inactive means flat fitted curve, though single readings scatter. Potencies of inconclusive entries are doubtful fits and often do not repeat.

Experiment: qHTS assay for MDR1-selective chemotherapeutics: Primary screen using the drug-selected MDR subline cells KB-V1; further: nearly all actives have a fitted effect of over 60% in size
Details: KB-V1 MDR cells viability, CellTiter-Glo, 72 h; series mostly up to 46.1 µM
Procedure, shortened: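 Potencies derive from concentration-effect curves fitted to normalized luminescence (CellTiter-Glo) of KB-V1 cells treated for 72 h at 37 degrees C in phenol-red-free DMEM containing 10% FBS.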
Potency means the concentration at half of the fitted maximal effect.

| Compound | Potency |
| --- | --- |
| COc1ccc(S(=O)(=O)N2CCN(C(=O)CCc3c[nH]c4ccccc34)CC2)cc1 | inactive |
| CC(=O)N(C)c1ccc(OCC(O)Cn2c(C)nc3ccccc32)cc1 (stereo not given) | inactive |
| COCCCNC(=O)COc1ccc2oc3c(c2c1)CCCC3 | inconclusive: 29.1 µM [cytotoxic, single point] |
| CCN(CC)c1nc2ccccc2nc1C(=O)Nc1ccc(C(C)=O)cc1 | inactive |
| O=C(NCC1OCCc2ccccc21)c1ccc(NC(=O)c2ccc(Cl)cc2Cl)cc1 (stereo not given) | inconclusive: 2.31 µM [cytotoxic, full curve] |
| C/C(=N\NC(=O)C(NC(=O)c1ccccc1)C(C)C)c1ccccc1 (stereo not given) | inconclusive: 18.4 µM [cytotoxic, single point] |
| COc1ccc(C2(OC)Oc3cc(OC)ccc3C(=O)C2(O)OC)cc1 (stereo not given) | active: 2.91 µM |
| COc1ccc(NC(=O)c2ccc(-n3cccn3)c([N+](=O)[O-])c2)cc1 | inconclusive: 16.4 µM [cytotoxic, single point] |
| Cc1cccc(N(C)c2nc3ccc(C(=O)c4ccccc4)cc3n3c(C)nnc23)c1 | inconclusive: 14.6 µM [cytotoxic, partial curve] |
| COC(=O)C(NC(=O)CSc1nc(N)cc(=O)[nH]1)c1ccccc1 (stereo not given) | inconclusive: 23.1 µM [rising, partial curve, poor fit] |
| Cc1ccc(-n2nc(C(=O)Nc3ccc(F)cc3F)c3c4ccccc4n(C)c3c2=O)cc1 | inactive |
| CC(=O)Nc1ccc(CNc2nc3cc(-c4ccsc4)sc3c(=O)n2C)cc1 | active: 23.1 µM |
| O=C(COC(=O)c1cccc(S(=O)(=O)NCc2ccccc2)c1)c1ccccc1 | inactive |
| Clc1ccc2nc(C3CCCCC3)c(Cc3ccsc3)n2c1 | inconclusive: 29.1 µM [cytotoxic, single point] |
| COc1cccc(C(=O)NNS(=O)(=O)c2ccc(C)cc2)c1 | inconclusive: 18.4 µM [rising, single point] |
| CC(C)n1c(=O)c2c(O)cc(=O)oc2c2ccccc21 | active: 6.51 µM |
| COC(=O)c1ccc(NC(=S)NC2CCCCC2)cc1 | inconclusive: 20.6 µM [cytotoxic, single point] |
| COC(C[C@H](O)[C@H](C)[C@H](O)COCc1ccccc1)OC | inconclusive: 29.1 µM [cytotoxic, single point] |
| CCN1C(=O)C2(C(C#N)=C(N)Oc3n[nH]c(-c4ccc(Cl)cc4)c32)c2ccccc21 (stereo not given) | inconclusive: 29.1 µM [rising, single point] |
| c1ccc(Cn2c3ccccc3c3nnc(SCCN4CCCCC4)nc32)cc1 | inconclusive: 1.3 µM [cytotoxic, partial curve] |
| Cc1nn(Cc2cccc(F)c2)c(C)c1NC(=O)c1ccc(COc2ccccc2Cl)cc1 | active: 2.59 µM |
| N=c1ncn(Cc2ccccc2)c2nc(SCCOc3ccccc3)[nH]c12 | inconclusive: 29.1 µM [cytotoxic, single point] |
| O=C(Nc1nc(-c2ccc(Cl)cc2)cs1)C1=COCCO1 | inconclusive: 18.4 µM [cytotoxic, partial curve] |

| Compound | Potency |
| --- | --- |
| CC(C)(C)C1CCc2c(sc(NC(=O)c3cc4ccccc4c(=O)o3)c2C(N)=O)C1 (stereo not given) | inactive |
| Nc1ncnc2c1ncn2[C@@H]1O[C@H](CNC(=O)[C@@H]2C[C@H](F)CN2)[C@@H](O)[C@H]1O | inconclusive: 0.651 µM [cytotoxic, partial curve, poor fit] |
| COc1ccccc1NC(=O)CN1CCN(CC(=O)Nc2ccc(Cl)c(C(F)(F)F)c2)CC1 | inconclusive: 16.4 µM [cytotoxic, single point] |
| CCCCn1c(SCC(=O)N2CCCc3ccccc32)nc2c1c(=O)n(C)c(=O)n2C | inconclusive: 8.2 µM [cytotoxic, partial curve] |
| Cc1cccc(COc2ccc(/C=N/NC(=O)c3nnn(-c4nonc4N)c3COc3ccc(F)cc3)cc2)c1 | inactive |
| COCC(=O)NC1(c2nnnn2CCOC(=O)Nc2ccc(Cl)cc2)CCCCC1 | inconclusive: 32.6 µM [cytotoxic, partial curve, poor fit] |
| COc1ccc(CC(=O)Nc2ccc3c(c2)OC2(CCCC2)O3)c(OC)c1 | inconclusive: 29.1 µM [cytotoxic, single point] |
| COC(=O)c1c(NC(=O)COC(=O)[C@@H](NS(=O)(=O)c2cccc(Cl)c2)C(C)C)sc2c1CCC2 | inactive |
| Cc1ccc(-c2nc(C)c(CCNC(=O)c3cccs3)s2)cc1 | inconclusive: 14.6 µM [cytotoxic, partial curve, poor fit] |
| Clc1ccccc1C1=Nn2c(nnc2-c2ccncc2)SC1 | inconclusive: 16.4 µM [cytotoxic, single point] |
| COCC1CCN(C(=O)c2cc(COc3ccc(C)c(C)c3)on2)C1 (stereo not given) | inconclusive: 20.6 µM [cytotoxic, single point] |
| COc1cccc(C(=O)Cn2c(Br)nc3c2c(=O)n(C)c(=O)n3C)c1 | inconclusive: 20.6 µM [cytotoxic, single point] |
| CN(C)c1ccc(C=C2SC(=S)N(Cc3ccco3)C2=O)cc1 | inactive |
| CC(=O)Nc1cccc(NC(=O)c2ccccc2OCc2ccccc2)c1 | inactive |
| COC(=O)/C=C1/S/C(=N/NC(=O)c2ccccc2OC)NC1=O | inconclusive: 23.1 µM [rising, single point] |
| COc1cc(/C=N/NS(=O)(=O)c2ccc(Br)cc2)ccc1O | inconclusive: 29.1 µM [cytotoxic, single point] |
| COC(=O)c1ccc(NC(=O)CCN2CCN(CCC(=O)Nc3ccc(C(=O)OC)cc3)CC2)cc1 | inactive |
| O=C(CN1CCC(n2nnc3cc(F)ccc32)CC1)NCc1ccco1 | inactive |
| Cc1nc2ccccc2cc1OCc1ccc(Cl)cc1 | active: 1.84 µM |
| COc1cc(C)c(COc2ncnc3ccccc23)cc1OC | inactive |
| O=C(CSc1nnc(-c2ccco2)n1Cc1ccccc1)c1ccc(F)cc1 | active: 9.2 µM |
| COc1ccc(C(=O)C[n+]2cccc3cc(C)ccc32)cc1 | inconclusive: 29.1 µM [rising, single point] |

Single entries from the entries so far:
Value of CC(C)(C)C1CCc2c(sc(NC(=O)c3cc4ccccc4c(=O)o3)c2C(N)=O)C1 (stereo not given) under Potency: inactive
Value of COc1cc(/C=N/NS(=O)(=O)c2ccc(Br)cc2)ccc1O under Potency: inconclusive: 29.1 µM [cytotoxic, single point]
